In PubChem BioAssay AID220 (DTP/NCI, 2004) one finds T/C and survivor count data, which are given here for 24 compounds.

The list shows only some results of the screen, not a fair sample: it gathers tests that were run many times, whatever their T/C, doses with no T/C, and many T/C values between a quarter and a half above the control. Other doses and runs of a compound stand elsewhere. T/C is the treated group as % of the vehicle group. Schedule codes are those of the source, taken here to give the interval after Q, in days (D) or hours (H), and the number of doses after X. Some T/C values carry the count of animals alive at the toxicity check (mostly the fifth day); where none is given, no animal had died by that day. Some entries give survivors of the animals treated and no T/C: the source files T/C as zero there, which appears to mark a toxic dose or a test without result, not a measured value. Survivors were counted at the toxicity check, usually on the fifth day, unless a day is given; later deaths do not show. Some entries were tested several times; the results are listed from low to high.

For this experiment, the system named is CD8F1 mice, subcutaneous mammary adenocarcinoma, T/C%. Briefly: NCI In Vivo Anticancer Drug Screen. Data for tumor model Mammary Adenocarcinoma CD8F1 (subcutaneous) in CD8F1. To be noted: higher T/C = larger tumour. An outline of the steps:
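Transplantable tumors were established in mice, animals were dosed with compound or vehicle, and survival or tumor size was then measured in both groups. The treated result was divided by the control result.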

The mark [1] stands for this setting: T/C endpoint: median tumor weight change, dose: 250.0 mg/kg/injection, schedule: Q01DX001 (ip), vehicle: saline with Tween-80.
The mark [2] stands for this setting: T/C endpoint: median tumor weight change, dose: 500.0 mg/kg/injection, schedule: Q01DX001 (ip), vehicle: saline with Tween-80.
The mark [3] stands for this setting: T/C endpoint: median tumor weight change, dose: 1000.0 mg/kg/injection, schedule: Q01DX001 (ip), vehicle: saline with Tween-80.
Where [4] appears, read: T/C endpoint: median tumor weight change, dose: 2000.0 mg/kg/injection, schedule: Q01DX001 (ip), vehicle: saline with Tween-80.
Setting [5] is: T/C endpoint: median tumor weight change, dose: 2000.0 mg/kg/injection, schedule: Q01DX001 (ip), vehicle: saline.

As for `C=CS(=O)(=O)c1ccccc1`, the T/C (T/C endpoint: mean tumor weight, dose: 12.5 mg/kg/injection, schedule: Q07DX005 (ip), vehicle: saline with Tween-80, evaluated on day 35) is 132 % of control.
Consider `O=Cc1ccc([N+](=O)[O-])s1`, for which the survivor count is 4 of 10 on day 30 (T/C endpoint: median tumor weight (est.), dose: 100.0 mg/kg/injection, schedule: Q07DX005 (ip), vehicle: saline with Tween-80) and 0 of 10 on day 30 (T/C endpoint: median tumor weight (est.), dose: 200.0 mg/kg/injection, schedule: Q07DX005 (ip), vehicle: saline with Tween-80).
As for `COc1cc([C@@H]2c3cc4c(cc3[C@@H](OC3OC5COC(C)OC5C(O)C3O)[C@H]3COC(=O)[C@H]23)OCO4)cc(OC)c1O` (some centres not stated), the survivor count (T/C endpoint: median tumor weight (est.), dose: 64.0 mg/kg/injection, schedule: Q07DX005 (ip), vehicle: saline) is listed as 5 of 10.
For `COc1cccc2c1C(=O)c1c(O)c3c(c(O)c1C2=O)C[C@@](O)(C(=O)CO)C[C@@H]3OC1CC(N(C)C)C(O)C(C)O1` (some centres not stated), the T/C (T/C endpoint: median tumor weight (est.), dose: 1.78 mg/kg/injection, schedule: Q07DX005 (ip), vehicle: water, evaluated on day 30) was 145 % of control.
As to `CCCCCCCCCCCCCC#CC(=O)O`, the survivor count was 1 of 10 on day 36 under setting [1]; 5 of 10 on day 36 under setting [2]; 0 of 10 on day 36 and 3 of 10 on day 29 under setting [3].
As to `NC(CCl)=NCC12CC3CC(CC(C3)C1)C2`, the T/C (T/C endpoint: median tumor weight (est.), dose: 25.0 mg/kg/injection, schedule: Q07DX005 (ip), vehicle: Klucel (hydroxypropylcellulose) (HPC), evaluated on day 32) was 146 % of control.
For `S=C1CCCCN1`, the survivor count runs as follows: (T/C endpoint: median tumor weight change, dose: 300.0 mg/kg/injection, schedule: Q01DX001 (ip), vehicle: distilled water + Tween-80 + alcohol) 2 of 10 on day 35; (T/C endpoint: median tumor weight change, dose: 600.0 mg/kg/injection, schedule: Q01DX001 (ip), vehicle: distilled water + Tween-80 + alcohol) 0 of 10 on day 35.
As for `CCCCCCCCCCCCN1C(C)=CS/C1=C\C=C\c1scc(C)[n+]1CCCCCCCCCCCC`, the survivor count is 4 of 10 on day 36 (T/C endpoint: median tumor weight change, dose: 62.5 mg/kg/injection, schedule: Q01DX001 (ip), vehicle: saline with Tween-80); 0 of 10 on day 36 (T/C endpoint: median tumor weight change, dose: 125.0 mg/kg/injection, schedule: Q01DX001 (ip), vehicle: saline with Tween-80); 0 of 10 on day 36 under setting [1].
On to `COc1cccc2c1C(=O)c1c(O)c3c(c(O)c1C2=O)C[C@@](O)(C(O)CO)C[C@@H]3OC1CC(N(Cc2ccccc2)Cc2ccccc2)C(O)C(C)O1` (some centres not stated), for which the survivor count by setting is: (T/C endpoint: median tumor weight change, dose: 250.0 mg/kg/injection, schedule: Q01DX001 (ip), vehicle: water) 5 of 10 on day 28; (T/C endpoint: median tumor weight change, dose: 500.0 mg/kg/injection, schedule: Q01DX001 (ip), vehicle: water) 1 of 10 on day 28.
On to `O=C(O)[C@H](Cc1ccccc1)N1C(=O)c2ccccc2C1=O`, for which the survivor count (T/C endpoint: median tumor weight change, dose: 1000.0 mg/kg/injection, schedule: Q01DX001 (ip), vehicle: DMSO) is 0 of 10 on day 29.
For `CC[C@H]1CN2CCc3cc(OC)c(OC)cc3[C@@H]2C[C@@H]1C[C@H]1NCCc2cc(OC)c(OC)cc21`, the T/C is 135 % of control (T/C endpoint: mean tumor weight, dose: 0.88 mg/kg/injection, schedule: Q07DX005 (ip), vehicle: saline, evaluated on day 31) and 146 % of control (T/C endpoint: median tumor weight (est.), dose: 14.0 mg/kg/injection, schedule: Q07DX005 (ip), vehicle: saline, evaluated on day 30).
On to `CCCCOCN(COCCCC)C12CC3CC(CC(C3)C1)C2`, for which the survivor count is, setting by setting: under setting [2], 6 of 10 on day 27; under setting [3], 1 of 10 on day 27; under setting [4], 0 of 10 on day 27.
Regarding `CCOC(=O)c1c[nH]c2oc(/C=N/N3CC(CN4CCOCC4)OC3=O)cc2c1=O` (configuration not stated), the T/C (T/C endpoint: median tumor weight (est.), dose: 200.0 mg/kg/injection, schedule: Q07DX005 (ip), vehicle: suspension in saline, evaluated on day 30) was 140 % of control [8 of 10 alive].
Turning to `Clc1ccc2nnnn2n1`, the survivor count is, setting by setting: under setting [2], 6 of 10 on day 36; under setting [3], 1 of 10 on day 36; under setting [4], 0 of 10 on day 36; (T/C endpoint: median tumor weight change, dose: 4000.0 mg/kg/injection, schedule: Q01DX001 (ip), vehicle: saline with Tween-80) 0 of 10 on day 36.
As for `C=Cc1cnc([N+](=O)[O-])n1C`, the survivor count is, setting by setting: (T/C endpoint: median tumor weight (est.), dose: 50.0 mg/kg/injection, schedule: Q07DX005 (ip), vehicle: Klucel (hydroxypropylcellulose) (HPC)) 5 of 10 on day 30; (T/C endpoint: median tumor weight (est.), dose: 400.0 mg/kg/injection, schedule: Q07DX005 (ip), vehicle: Klucel (hydroxypropylcellulose) (HPC)) 0 of 10 on day 30.
As for `COC1/C=C/C=C(/C)Cc2cc(O)c(Cl)c(c2)N(C)C(=O)CC(OC(=O)C(C)C)C2(C)OC2C(C)C2CC1(O)NC(=O)O2` (configuration not stated), where the note is “T/C endpoint: median tumor weight change, dose: 20.0 mg/kg/injection, schedule: Q01DX001 (ip), vehicle: saline + alcohol”, the survivor count is on record as 0 of 10 on day 31.
In the case of `O=C(O)C(CSC(c1ccccc1)(c1ccccc1)c1ccccc1)N=Cc1cccs1` (configuration not stated), the survivor count reads like this: (T/C endpoint: median tumor weight change, dose: 500.0 mg/kg/injection, schedule: Q01DX001 (ip), vehicle: saline) 5 of 10 on day 31; (T/C endpoint: median tumor weight change, dose: 500.0 mg/kg/injection, schedule: Q01DX001 (ip), vehicle: suspension in saline) 1 of 10 on day 35; (T/C endpoint: median tumor weight change, dose: 1000.0 mg/kg/injection, schedule: Q01DX001 (ip), vehicle: saline) 0 of 10 on day 31; (T/C endpoint: median tumor weight change, dose: 1000.0 mg/kg/injection, schedule: Q01DX001 (ip), vehicle: suspension in saline) 0 of 10 on day 35; under setting [5], 0 of 10 on day 31.
In the case of `COc1cc2c(cc1O)N=C[C@@H]1CCC(O)N1C2=O` (mixture of isomers), the T/C (T/C endpoint: median tumor weight (est.), dose: 1.0 mg/kg/injection, schedule: Q07DX005 (ip), vehicle: saline, evaluated on day 30) is 135 % of control. Besides, the survivor count (T/C endpoint: median tumor weight (est.), dose: 16.0 mg/kg/injection, schedule: Q07DX005 (ip), vehicle: saline) was 6 of 10 on day 30 and the survivor count (T/C endpoint: median tumor weight (est.), dose: 32.0 mg/kg/injection, schedule: Q07DX005 (ip), vehicle: saline) is given as 0 of 10 on day 30.
`Nc1nc(=S)c2ncn(C3CC(O)C(CO)O3)c2[nH]1` (configuration not stated): the T/C (T/C endpoint: median tumor weight (est.), dose: 100.0 mg/kg/injection, schedule: Q07DX005 (ip), vehicle: suspension in saline, evaluated on day 30) was 125 % of control. Further, the survivor count is, setting by setting: (T/C endpoint: median tumor weight (est.), dose: 160.0 mg/kg/injection, schedule: Q07DX005 (ip), vehicle: saline with Tween-80) 1 of 10 on day 30 and 5 of 10; (T/C endpoint: median tumor weight (est.), dose: 400.0 mg/kg/injection, schedule: Q07DX005 (ip), vehicle: suspension in saline) 6 of 10 on day 30.
In the case of `O=S(=O)(O)O.[NH-]C1CCCCC1[NH-].[Pt+2]` (configuration not stated), the survivor count (T/C endpoint: median tumor weight (est.), dose: 10.0 mg/kg/injection, schedule: Q07DX005 (ip), vehicle: dextrose) is 5 of 10.
Turning to `CN(C)CCN1C(=O)c2cccc3cc([N+](=O)[O-])cc(c23)C1=O`, the survivor count (T/C endpoint: median tumor weight change, dose: 60.0 mg/kg/injection, schedule: Q01DX001 (ip), vehicle: saline with Tween-80) was 4 of 10 on day 32 and the survivor count (T/C endpoint: median tumor weight change, dose: 120.0 mg/kg/injection, schedule: Q01DX001 (ip), vehicle: saline with Tween-80) is given as 0 of 10 on day 32.
Regarding `Cc1cc(N/N=C/c2ccccn2)nc2ccccc12`, the survivor count (T/C endpoint: median tumor weight change, dose: 500.0 mg/kg/injection, schedule: Q01DX001 (ip), vehicle: Klucel (hydroxypropylcellulose) (HPC)) is listed as 0 of 10 on day 25.
Regarding `N=C(N)CCCCCCCCC(=N)N`, the survivor count is, setting by setting: (T/C endpoint: median tumor weight (est.), dose: 50.0 mg/kg/injection, schedule: Q07DX005 (ip), vehicle: saline) 0 of 10 on day 30; (T/C endpoint: median tumor weight change, dose: 7.81 mg/kg/injection, schedule: Q01DX001 (ip), vehicle: saline) 6 of 10 on day 29; (T/C endpoint: median tumor weight change, dose: 62.5 mg/kg/injection, schedule: Q01DX001 (ip), vehicle: saline) 0 of 10 on day 29; (T/C endpoint: median tumor weight change, dose: 64.0 mg/kg/injection, schedule: Q01DX001 (ip), vehicle: saline) 0 of 10 on day 34; (T/C endpoint: median tumor weight change, dose: 125.0 mg/kg/injection, schedule: Q01DX001 (ip), vehicle: saline) 0 of 10 on day 29; (T/C endpoint: median tumor weight change, dose: 250.0 mg/kg/injection, schedule: Q01DX001 (ip), vehicle: saline) 0 of 10 on day 29.
For the compound `CC(C)C(N)C(=O)Nc1nncs1` (configuration not stated), the survivor count under setting [5] was 0 of 10 on day 28.
